Measured values as given in paper PMC11671618.
Results are given in words; binding and its absence hold for the method and conditions named. Binding seen in cells or lysates may run through a third protein. Some binding calls cover weakened binding; strength is not graded here. Tags and fused reporters may be left off the sequences shown.

The chains behind the UniProt entries cited, without tags or fusion partners.
UniProt Q9UMX0: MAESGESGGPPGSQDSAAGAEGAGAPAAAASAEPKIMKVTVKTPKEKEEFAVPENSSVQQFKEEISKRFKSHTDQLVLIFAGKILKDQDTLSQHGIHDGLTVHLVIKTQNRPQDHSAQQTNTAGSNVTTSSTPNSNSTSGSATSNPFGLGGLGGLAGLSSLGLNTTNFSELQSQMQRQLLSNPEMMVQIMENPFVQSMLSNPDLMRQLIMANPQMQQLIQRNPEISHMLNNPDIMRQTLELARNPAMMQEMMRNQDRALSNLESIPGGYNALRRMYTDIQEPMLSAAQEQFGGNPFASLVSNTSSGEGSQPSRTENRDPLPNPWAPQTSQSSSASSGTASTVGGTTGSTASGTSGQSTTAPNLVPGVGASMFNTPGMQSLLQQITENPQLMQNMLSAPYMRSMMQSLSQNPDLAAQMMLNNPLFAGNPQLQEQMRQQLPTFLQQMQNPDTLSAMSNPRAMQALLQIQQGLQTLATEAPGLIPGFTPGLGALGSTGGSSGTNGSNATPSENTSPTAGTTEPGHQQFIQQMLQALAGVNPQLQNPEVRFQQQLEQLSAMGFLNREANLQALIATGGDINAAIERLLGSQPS

Biological target: T1, Beclin 2-Flag (UniProt A8MW95)
T1 sequence: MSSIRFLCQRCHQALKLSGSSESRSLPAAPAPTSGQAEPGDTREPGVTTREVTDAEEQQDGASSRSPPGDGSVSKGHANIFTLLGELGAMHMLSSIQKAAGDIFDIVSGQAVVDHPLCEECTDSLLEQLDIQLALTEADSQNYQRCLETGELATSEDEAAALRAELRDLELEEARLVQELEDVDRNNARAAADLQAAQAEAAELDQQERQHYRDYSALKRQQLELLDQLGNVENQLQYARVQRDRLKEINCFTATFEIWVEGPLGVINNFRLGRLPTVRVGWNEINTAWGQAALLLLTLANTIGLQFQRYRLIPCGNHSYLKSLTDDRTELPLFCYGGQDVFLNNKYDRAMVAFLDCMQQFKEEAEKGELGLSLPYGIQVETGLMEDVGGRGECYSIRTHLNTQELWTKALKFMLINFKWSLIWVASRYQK
Assay: co-IP; Co-IP and Western blot in MDA-MB-231 cells; Flag antibody or mouse IgG control, protein A/G magnetic beads, immunoblot

binding: binds
Substance: Ubiquilin 1 (from UniProt Q9UMX0 1-589)
